These are yes or no findings as the source states them, for the method shown. In cells and extracts the contact can be indirect. Some results given as binding are weak or reduced against the parent protein; the word gives no strength.
How the values were obtained:
[1] = biological target: GSK-3β (human (endogenous in MDA-MB-231 and MCF7)) (UniProt P49841); assay: co-IP; lysates of MDA-MB-231 and MCF7 cells stably expressing vector, immunoprecipitated with an anti-GSK3β or an anti-SNAIL antibody, then immunoblot
[2] = biological target: T1, Annexin A1 (ANXA1) (human (endogenous in MDA-MB-231 and MCF7)) (UniProt P04083); assay: co-IP; lysates of MDA-MB-231 and MCF7 cells stably expressing vector or Flag-NTF4, immunoprecipitated with an anti-ANXA1 antibody, then immunoblot
T1 sequence: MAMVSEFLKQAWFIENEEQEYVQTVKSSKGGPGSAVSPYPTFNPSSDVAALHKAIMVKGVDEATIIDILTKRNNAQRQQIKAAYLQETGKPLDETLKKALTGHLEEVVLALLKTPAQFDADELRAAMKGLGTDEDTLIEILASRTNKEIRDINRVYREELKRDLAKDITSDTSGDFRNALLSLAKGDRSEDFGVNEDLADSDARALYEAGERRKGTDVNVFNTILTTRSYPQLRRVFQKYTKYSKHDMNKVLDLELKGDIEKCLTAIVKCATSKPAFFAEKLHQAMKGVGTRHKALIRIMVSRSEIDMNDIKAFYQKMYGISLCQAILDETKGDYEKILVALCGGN

The chains behind the UniProt entries cited, without tags or fusion partners.
UniProt P49841: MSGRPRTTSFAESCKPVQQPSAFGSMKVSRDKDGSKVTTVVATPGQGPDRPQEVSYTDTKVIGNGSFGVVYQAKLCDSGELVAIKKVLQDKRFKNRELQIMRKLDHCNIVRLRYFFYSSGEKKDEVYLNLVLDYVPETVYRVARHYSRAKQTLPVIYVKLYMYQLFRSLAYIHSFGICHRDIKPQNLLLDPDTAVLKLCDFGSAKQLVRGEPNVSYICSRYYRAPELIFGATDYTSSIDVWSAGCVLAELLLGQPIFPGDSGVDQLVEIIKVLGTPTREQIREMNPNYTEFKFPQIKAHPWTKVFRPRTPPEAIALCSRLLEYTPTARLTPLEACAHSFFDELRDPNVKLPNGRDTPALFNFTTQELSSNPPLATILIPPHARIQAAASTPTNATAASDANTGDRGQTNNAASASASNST
UniProt O95863: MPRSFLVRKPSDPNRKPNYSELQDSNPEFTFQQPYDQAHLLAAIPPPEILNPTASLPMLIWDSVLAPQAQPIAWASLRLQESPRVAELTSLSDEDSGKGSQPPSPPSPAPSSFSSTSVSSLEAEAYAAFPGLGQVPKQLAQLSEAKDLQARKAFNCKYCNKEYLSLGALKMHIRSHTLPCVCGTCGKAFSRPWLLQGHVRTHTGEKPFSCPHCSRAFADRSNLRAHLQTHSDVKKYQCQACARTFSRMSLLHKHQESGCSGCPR
UniProt Q14974: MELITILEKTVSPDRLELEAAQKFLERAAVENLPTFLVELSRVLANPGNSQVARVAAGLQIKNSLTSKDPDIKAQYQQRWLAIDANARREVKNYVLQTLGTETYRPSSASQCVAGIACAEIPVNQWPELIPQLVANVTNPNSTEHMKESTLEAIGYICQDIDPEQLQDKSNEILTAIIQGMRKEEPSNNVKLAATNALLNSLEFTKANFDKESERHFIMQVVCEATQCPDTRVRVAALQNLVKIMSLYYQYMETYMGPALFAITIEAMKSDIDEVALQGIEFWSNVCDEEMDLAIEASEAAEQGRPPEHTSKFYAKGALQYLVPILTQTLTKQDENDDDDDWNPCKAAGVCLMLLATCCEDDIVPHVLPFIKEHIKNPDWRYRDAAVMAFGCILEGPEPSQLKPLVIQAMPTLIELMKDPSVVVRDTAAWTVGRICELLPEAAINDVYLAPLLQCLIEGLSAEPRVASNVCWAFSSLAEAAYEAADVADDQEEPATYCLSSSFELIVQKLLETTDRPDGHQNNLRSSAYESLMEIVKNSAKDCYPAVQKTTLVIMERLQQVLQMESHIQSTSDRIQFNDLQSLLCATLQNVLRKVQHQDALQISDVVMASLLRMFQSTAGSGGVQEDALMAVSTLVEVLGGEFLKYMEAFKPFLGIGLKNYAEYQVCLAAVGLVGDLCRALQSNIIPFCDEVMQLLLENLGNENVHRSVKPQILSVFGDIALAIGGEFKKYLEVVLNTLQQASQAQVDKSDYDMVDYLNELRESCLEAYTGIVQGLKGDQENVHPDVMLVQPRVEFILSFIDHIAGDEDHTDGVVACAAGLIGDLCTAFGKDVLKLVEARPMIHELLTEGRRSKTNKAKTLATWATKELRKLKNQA

binding [1] | binding [2] | Substance
binds | – | SNAIL (from UniProt O95863 1-264)
– | binds | importin β (from UniProt Q14974 1-876)
